Measured values as given in paper PMC8621148, “Determination of the Protein-Protein Interactions within Acyl Carrier Protein (MmcB)-Dependent Modifications in the Biosynthesis of Mitomycin” (Molecules, 2021).
No constants are given. Whether binding was seen depends on the method and setting. Some results given as binding are weak or reduced against the parent protein; the word gives no strength. Sequences can lack the tags named with a protein.

Target: T1, MitF, reductase (Streptomyces lavendulae NRRL 2564, UniProt Q9X5R6 1-257)
T1 construct: MitF, reductase of the mitomycin C biosynthetic gene cluster, Streptomyces lavendulae NRRL 2564; source: E. coli BL21(DE3), pET30a (pJQK414), purified (Ni-NTA, FPLC); not shown: His6, N-terminal, kept
T1 sequence (looked up): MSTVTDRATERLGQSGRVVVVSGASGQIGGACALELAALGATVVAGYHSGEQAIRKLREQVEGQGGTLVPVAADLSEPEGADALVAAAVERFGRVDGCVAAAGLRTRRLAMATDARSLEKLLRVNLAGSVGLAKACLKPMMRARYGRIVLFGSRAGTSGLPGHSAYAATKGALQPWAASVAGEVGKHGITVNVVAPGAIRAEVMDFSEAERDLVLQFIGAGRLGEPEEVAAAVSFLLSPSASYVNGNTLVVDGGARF
Test: pull-down; MitB or MitF incubated with tag-free holo-MmcB, 100 µL, 10 mM PBS pH 7.5, 1 h at 30 °C; mixture put on His-bind resin, eluted with 20-100 mM imidazole, SDS-PAGE; both purified

B1: holo-MmcB (acyl carrier protein MmcB, tag-free) (natural protein, Streptomyces lavendulae NRRL 2564, UniProt Q9X5S0 1-93, looked up)
chain: METLTTDKIKDRLRKVLVDSLELSLDPSAVPDEGLVEKLGLDSINTIEFLIWVESEFGIEIADEDLSIKLIDSLDLLAGYVSERVNGVTAPAE
modifications: 4'-phosphopantetheine at Ser43 (holo-form)
notes: MmcB, acyl carrier protein of the mitomycin C biosynthetic gene cluster, Streptomyces lavendulae NRRL 2564; 93 amino acid residues; gene synthesised with codons optimised for E. coli; The methods name the holo form for both the pull-down and SPR; also called ACP; tag-free MmcB; not shown: His6, C-terminal, cleaved
binding: binds
